Results are given in words; binding and its absence hold for the method and conditions named. Some binding calls cover weakened binding; strength is not graded here.
Biological target: T1, macrophage migration inhibitory factor (MIF) (UniProt P14174)
T1 sequence (looked up): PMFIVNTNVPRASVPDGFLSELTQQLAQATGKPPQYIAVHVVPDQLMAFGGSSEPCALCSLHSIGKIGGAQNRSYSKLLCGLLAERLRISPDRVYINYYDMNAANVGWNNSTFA
Experiment: MIF antibody affinity purification of LNCaP lysate; MALDI-TOF and Edman sequencing

Chains of the proteins cited; added tags and fusions are not shown. Residues count along the entry.
UniProt P20151, residues 25-261: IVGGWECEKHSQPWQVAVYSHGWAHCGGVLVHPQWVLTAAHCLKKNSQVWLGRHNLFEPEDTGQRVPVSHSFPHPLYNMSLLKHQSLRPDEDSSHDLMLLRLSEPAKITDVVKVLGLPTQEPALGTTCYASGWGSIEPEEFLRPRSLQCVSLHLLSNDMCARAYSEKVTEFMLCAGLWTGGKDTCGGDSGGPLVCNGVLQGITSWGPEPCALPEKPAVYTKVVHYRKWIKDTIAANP

human glandular kallikrein-2 (hK2) (from UniProt P20151 25-261) (enzyme)
binding: binds
